Some of the results follow. The data scatter; read single values as rough.

Chains of the proteins cited; added tags and fusions are not shown. Lines headed by an entry give the natural chain unless they say otherwise; changes in a name come on top. Residues count along the entry.
UniProt Q8IUF8: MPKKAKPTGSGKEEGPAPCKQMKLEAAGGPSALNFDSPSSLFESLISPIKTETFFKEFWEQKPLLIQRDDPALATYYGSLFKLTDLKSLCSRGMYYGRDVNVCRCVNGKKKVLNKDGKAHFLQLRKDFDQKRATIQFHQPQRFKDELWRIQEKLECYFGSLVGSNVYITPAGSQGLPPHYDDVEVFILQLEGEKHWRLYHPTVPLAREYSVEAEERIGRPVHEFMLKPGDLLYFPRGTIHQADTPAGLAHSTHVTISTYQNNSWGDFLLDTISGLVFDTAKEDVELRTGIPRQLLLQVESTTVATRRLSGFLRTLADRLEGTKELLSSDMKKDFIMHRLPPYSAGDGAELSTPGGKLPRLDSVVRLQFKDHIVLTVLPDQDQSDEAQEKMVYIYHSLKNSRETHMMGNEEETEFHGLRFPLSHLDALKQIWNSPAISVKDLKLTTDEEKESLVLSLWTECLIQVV
UniProt O60518: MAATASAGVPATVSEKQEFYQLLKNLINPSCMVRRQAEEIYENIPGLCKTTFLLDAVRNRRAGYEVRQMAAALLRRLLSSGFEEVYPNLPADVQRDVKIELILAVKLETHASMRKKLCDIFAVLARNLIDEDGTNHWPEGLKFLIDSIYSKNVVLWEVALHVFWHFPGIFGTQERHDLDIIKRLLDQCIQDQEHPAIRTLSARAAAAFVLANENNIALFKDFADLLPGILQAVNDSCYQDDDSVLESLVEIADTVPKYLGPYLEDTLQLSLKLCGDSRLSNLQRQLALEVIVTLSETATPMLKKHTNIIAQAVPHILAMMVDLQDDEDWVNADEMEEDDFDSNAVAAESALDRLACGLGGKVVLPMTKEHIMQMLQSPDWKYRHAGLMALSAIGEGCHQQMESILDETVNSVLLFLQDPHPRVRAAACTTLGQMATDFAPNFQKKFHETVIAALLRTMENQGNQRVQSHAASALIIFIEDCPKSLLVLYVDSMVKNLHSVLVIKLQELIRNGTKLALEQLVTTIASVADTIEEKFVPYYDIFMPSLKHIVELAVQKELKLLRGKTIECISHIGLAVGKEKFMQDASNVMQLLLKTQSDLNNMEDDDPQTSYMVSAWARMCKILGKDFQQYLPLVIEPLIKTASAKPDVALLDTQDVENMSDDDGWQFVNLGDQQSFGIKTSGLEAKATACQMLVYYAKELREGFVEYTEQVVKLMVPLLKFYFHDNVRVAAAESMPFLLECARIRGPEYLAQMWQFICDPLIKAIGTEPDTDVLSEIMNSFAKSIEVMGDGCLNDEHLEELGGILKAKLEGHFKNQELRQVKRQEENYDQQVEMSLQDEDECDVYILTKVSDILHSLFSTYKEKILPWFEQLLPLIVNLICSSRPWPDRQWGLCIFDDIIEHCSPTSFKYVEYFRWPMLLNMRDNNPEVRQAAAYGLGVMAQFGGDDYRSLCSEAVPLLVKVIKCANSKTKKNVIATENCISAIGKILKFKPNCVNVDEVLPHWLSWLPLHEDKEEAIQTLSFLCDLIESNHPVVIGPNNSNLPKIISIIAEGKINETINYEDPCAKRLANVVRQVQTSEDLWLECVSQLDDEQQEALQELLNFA
UniProt Q9H6Z4, 96-121: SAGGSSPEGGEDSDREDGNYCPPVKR
UniProt Q13129: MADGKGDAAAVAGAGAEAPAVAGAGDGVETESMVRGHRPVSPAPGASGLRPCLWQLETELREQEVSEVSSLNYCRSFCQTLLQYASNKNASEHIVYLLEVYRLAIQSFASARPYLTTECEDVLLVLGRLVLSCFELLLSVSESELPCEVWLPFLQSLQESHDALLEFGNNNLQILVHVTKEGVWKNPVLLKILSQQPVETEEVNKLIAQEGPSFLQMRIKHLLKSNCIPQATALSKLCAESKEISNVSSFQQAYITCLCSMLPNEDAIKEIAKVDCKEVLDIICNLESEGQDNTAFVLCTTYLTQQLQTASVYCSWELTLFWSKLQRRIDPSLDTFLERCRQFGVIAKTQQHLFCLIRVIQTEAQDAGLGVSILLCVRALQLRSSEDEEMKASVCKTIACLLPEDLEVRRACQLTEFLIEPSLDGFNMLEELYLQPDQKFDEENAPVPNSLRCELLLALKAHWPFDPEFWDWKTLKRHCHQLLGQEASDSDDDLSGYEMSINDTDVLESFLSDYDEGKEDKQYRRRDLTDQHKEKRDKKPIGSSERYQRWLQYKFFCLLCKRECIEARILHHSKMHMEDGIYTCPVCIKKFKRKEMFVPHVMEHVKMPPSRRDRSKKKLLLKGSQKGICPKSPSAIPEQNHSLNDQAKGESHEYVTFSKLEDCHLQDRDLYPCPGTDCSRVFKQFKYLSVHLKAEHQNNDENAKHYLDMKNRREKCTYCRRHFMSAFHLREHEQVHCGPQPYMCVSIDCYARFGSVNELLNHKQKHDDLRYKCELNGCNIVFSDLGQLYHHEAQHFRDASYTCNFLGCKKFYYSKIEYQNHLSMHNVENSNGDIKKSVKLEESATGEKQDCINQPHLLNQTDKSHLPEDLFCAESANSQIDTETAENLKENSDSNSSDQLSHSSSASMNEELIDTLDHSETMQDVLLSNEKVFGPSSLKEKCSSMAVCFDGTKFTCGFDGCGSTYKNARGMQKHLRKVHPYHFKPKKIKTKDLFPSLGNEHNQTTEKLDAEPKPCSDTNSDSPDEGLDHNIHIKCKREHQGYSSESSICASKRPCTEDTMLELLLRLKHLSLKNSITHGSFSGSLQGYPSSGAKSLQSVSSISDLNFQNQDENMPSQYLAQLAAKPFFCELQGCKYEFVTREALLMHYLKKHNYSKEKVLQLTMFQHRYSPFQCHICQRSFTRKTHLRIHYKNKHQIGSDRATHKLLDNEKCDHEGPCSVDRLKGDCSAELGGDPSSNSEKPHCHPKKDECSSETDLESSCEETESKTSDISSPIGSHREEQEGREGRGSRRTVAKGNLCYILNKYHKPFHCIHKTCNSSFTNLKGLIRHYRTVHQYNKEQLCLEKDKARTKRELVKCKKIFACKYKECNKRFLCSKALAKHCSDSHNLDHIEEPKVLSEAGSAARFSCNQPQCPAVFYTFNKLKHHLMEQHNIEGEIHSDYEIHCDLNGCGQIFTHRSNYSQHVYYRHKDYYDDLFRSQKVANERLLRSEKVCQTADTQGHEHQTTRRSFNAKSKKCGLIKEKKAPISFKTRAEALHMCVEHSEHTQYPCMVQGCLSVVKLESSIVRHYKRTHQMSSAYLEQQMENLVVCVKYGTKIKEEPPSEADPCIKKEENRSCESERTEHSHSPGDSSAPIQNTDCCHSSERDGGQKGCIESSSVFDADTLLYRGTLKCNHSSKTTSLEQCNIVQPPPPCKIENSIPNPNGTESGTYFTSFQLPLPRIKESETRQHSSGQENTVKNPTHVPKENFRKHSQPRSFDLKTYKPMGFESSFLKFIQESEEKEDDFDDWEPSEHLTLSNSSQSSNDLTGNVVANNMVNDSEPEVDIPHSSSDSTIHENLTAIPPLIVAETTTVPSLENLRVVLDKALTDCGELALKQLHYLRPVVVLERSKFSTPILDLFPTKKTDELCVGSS
UniProt Q5T160, 295-315: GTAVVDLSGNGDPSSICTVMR
UniProt Q969X0: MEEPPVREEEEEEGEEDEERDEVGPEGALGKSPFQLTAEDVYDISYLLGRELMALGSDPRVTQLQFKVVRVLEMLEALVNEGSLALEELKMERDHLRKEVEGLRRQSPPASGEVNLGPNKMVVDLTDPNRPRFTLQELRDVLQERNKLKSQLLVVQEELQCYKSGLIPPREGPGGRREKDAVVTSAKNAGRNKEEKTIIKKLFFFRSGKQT
UniProt Q9P260: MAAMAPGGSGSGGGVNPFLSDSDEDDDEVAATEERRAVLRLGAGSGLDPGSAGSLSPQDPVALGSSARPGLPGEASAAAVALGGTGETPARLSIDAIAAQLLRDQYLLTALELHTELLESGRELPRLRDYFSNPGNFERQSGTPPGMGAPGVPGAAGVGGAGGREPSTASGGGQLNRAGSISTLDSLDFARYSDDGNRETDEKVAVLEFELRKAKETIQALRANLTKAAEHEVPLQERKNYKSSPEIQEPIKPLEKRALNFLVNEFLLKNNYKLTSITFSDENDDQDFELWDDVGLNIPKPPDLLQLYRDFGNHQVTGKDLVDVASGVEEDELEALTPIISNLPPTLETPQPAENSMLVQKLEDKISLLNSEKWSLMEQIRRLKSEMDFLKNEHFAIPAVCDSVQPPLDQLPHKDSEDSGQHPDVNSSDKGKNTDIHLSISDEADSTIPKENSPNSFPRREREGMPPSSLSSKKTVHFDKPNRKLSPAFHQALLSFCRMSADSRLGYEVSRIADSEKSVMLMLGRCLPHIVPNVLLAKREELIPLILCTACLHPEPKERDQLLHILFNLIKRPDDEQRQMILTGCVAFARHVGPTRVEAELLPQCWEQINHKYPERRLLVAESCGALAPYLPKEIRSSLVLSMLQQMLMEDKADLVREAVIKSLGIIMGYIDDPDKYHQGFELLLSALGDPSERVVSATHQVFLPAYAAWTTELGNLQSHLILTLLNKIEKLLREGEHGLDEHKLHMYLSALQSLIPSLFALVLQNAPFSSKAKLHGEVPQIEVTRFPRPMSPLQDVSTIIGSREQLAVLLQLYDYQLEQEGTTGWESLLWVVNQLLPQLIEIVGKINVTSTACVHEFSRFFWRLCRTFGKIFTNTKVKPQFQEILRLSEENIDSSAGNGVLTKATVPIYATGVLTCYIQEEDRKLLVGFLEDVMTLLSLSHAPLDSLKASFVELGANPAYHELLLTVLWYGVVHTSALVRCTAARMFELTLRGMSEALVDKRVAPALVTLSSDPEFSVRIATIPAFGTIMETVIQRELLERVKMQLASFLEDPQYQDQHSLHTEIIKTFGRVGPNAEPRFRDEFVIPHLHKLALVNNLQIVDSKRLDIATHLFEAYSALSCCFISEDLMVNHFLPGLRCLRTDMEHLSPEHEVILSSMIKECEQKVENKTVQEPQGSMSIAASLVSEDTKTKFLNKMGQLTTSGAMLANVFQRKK
UniProt Q9NS23: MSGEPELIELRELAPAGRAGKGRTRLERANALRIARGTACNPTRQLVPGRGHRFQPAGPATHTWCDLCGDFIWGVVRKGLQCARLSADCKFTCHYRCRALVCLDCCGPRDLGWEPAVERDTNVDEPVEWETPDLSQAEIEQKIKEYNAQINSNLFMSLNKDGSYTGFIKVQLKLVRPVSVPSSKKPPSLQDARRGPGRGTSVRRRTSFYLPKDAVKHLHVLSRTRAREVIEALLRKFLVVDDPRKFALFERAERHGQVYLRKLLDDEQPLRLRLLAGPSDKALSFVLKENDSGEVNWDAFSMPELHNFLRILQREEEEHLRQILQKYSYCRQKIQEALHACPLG
UniProt Q8TEU7, 1363-1383: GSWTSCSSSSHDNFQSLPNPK
UniProt Q9BRS2: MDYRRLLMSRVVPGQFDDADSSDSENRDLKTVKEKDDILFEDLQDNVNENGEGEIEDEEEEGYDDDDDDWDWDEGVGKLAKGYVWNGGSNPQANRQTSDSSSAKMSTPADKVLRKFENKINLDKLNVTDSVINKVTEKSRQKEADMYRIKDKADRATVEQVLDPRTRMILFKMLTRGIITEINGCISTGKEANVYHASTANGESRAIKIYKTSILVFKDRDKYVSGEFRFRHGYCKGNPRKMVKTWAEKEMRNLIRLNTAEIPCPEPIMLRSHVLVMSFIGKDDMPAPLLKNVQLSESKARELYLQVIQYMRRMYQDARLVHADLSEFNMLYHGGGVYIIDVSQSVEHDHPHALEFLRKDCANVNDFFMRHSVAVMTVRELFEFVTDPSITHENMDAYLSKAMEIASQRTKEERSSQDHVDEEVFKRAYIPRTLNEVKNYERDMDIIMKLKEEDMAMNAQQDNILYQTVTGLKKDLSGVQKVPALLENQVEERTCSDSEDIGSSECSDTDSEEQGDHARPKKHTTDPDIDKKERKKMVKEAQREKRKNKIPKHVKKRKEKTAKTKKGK
UniProt Q6VN20: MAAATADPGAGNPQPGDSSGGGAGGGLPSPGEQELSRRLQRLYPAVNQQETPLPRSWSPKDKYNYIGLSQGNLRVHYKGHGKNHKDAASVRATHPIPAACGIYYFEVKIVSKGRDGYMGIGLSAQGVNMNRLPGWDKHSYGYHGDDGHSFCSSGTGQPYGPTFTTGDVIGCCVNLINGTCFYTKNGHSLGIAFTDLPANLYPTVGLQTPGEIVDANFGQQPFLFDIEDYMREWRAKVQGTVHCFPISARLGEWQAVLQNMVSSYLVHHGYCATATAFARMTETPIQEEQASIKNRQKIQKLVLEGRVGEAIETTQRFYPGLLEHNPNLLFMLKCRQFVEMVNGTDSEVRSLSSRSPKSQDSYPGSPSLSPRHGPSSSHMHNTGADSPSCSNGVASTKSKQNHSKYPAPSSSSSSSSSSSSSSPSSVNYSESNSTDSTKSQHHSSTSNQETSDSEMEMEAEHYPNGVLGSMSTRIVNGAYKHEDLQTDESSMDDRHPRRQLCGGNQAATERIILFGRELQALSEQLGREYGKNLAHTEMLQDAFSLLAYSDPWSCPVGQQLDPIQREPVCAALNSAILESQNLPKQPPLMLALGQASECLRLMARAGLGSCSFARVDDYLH
UniProt Q9H871, 307-327: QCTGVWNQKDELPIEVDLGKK

Compound in one experiment: ClCC(=O)N[C@H]1CCCc2ccccc12
The experiment in a line: log2 mean competition ratio of IA-DTB cysteine labelling (DMSO/compound) (log2 ratio); higher = stronger cysteine engagement by compound. Conditions: 50 µM; treatment time: 4 h; cell line lysate: HEK293T. On the procedure: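 IA-DTB competitive cysteine chemoproteomics in HEK293T RIPA lysate. Lysates were treated with compound 29 or 30 at 50 or 200 µM for 4 h, then IA-DTB (500 µM, 1 h), trypsin-digested, NeutrAvidin-enriched and analysed by diaPASEF. Competition ratio = intensity DMSO / intensity compound (n=4 treated, n=64 DMSO); binding: mean log2 CR ≥ 1 and p ≤ 0.05 plus QC filters. Target is the cysteine site.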
As to RIOX2 C19 (UniProt Q8IUF8), the “log2 mean competition ratio” value worked out at 0.0631.
Same read-out and setting: the result for RANBP6 C31 (UniProt O60518) reads 0.195; that for RBL1 C288 (UniProt P28749), 0.0834.
Same read-out and setting: with RANBP3 C116 (UniProt Q9H6Z4) the figure was -0.113.
Turning to RLF C1609 (UniProt Q13129), the “log2 mean competition ratio” value was -0.349.
Regarding RARS1 C638, the “log2 mean competition ratio” value was found to be 0.233.
The same measure, in the same setting: the result for RIPOR1 C289 (UniProt Q6ZS17) reads 0.0865; that for RARS2 C311 (UniProt Q5T160), -0.0774.
Regarding RILPL2 C161 (UniProt Q969X0), the “log2 mean competition ratio” value was -0.433.
As to RANBP2 C815 (UniProt P49792), the “log2 mean competition ratio” value worked out at 0.102.
Still for that read-out and setting: the result for RBM41 C43 (UniProt Q96IZ5) reads -0.00644.
Still for that read-out and setting: the result for RASSF4 C145 reads -0.0297.
The same measure, in the same setting: the result for RELCH C605 (UniProt Q9P260) reads -0.459.
For the target RASSF1 C341 (UniProt Q9NS23), the “log2 mean competition ratio” value stood at 0.175.
Take RECQL C447 (UniProt P46063): the “log2 mean competition ratio” value is 0.806.
Same read-out and setting: with RASSF4 C236 the figure was -0.197; with RAPGEF6 C1368 (UniProt Q8TEU7), -0.0611; with RIOK1 C361 (UniProt Q9BRS2), 0.0175.
On the same count and under the same terms, with RANBP10 C569 (UniProt Q6VN20) the figure was -0.257; with RMND5A C308 (UniProt Q9H871), 0.142.

Still in this experiment, the particulars now being: 200 µM; treatment time: 4 h; cell line lysate: HEK293T.
Take RIOX2 C19 (UniProt Q8IUF8): the “log2 mean competition ratio” value is -0.0981.
Turning to RANBP6 C31 (UniProt O60518), the “log2 mean competition ratio” value was 0.233.
Consider RBL1 C288 (UniProt P28749), for which the “log2 mean competition ratio” value stood at 0.407.
Regarding RANBP3 C116 (UniProt Q9H6Z4), the “log2 mean competition ratio” value was -0.201.
Still for that read-out and setting: with RLF C1609 (UniProt Q13129) the figure was 0.012; with RARS1 C638, -0.3.
Still for that read-out and setting: with RIPOR1 C289 (UniProt Q6ZS17) the figure was -0.126.
Same read-out and setting: with RARS2 C311 (UniProt Q5T160) the figure was -0.0166.
Take RILPL2 C161 (UniProt Q969X0): the “log2 mean competition ratio” value is -0.13.
On the same count and under the same terms, the result for RANBP2 C815 (UniProt P49792) reads -0.215.
The same measure, in the same setting: the result for RBM41 C43 (UniProt Q96IZ5) reads 0.148.
Same read-out and setting: the result for RASSF4 C145 reads 0.283; that for RELCH C605 (UniProt Q9P260), -0.393.
Take RASSF1 C341 (UniProt Q9NS23): the “log2 mean competition ratio” value was -0.0277.
On to RECQL C447 (UniProt P46063), for which the “log2 mean competition ratio” value is -0.342.
Consider RASSF4 C236, for which the “log2 mean competition ratio” value was 0.188.
The same measure, in the same setting: the result for RAPGEF6 C1368 (UniProt Q8TEU7) reads 0.517; that for RIOK1 C361 (UniProt Q9BRS2), -0.195.
RANBP10 C569 (UniProt Q6VN20): the “log2 mean competition ratio” value is -0.289.
On the same count and under the same terms, the result for RMND5A C308 (UniProt Q9H871) reads 0.0227.
